# According to the supplement of paper PMC3334620:
# Whole data set: some 33,000 sequences, median “E-score (-0.5 to 0.5)” near -0.0059, cut for the highest 2% near 0.26. This is one part of the list.
# Molecular target: T1, Cin5 (UniProt P40917)
# T1 sequence: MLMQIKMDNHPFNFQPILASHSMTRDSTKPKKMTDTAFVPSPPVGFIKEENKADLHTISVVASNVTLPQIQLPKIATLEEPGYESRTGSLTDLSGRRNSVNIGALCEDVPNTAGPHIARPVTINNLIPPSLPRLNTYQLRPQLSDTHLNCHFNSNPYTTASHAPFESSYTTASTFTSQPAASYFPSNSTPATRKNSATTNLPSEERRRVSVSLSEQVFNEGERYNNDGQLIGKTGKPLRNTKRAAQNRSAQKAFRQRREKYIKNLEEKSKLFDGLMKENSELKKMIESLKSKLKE
# Test: PBM E-score (8-mer binding enrichment) (E-score (-0.5 to 0.5)); higher = stronger / more preferred TF binding
# Settings: protein concentration: 100 nM; construct: GST-full length
# Procedure, shortened: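 Masliner-normalised scans of fluorescent anti-GST signal were the basis for scoring. That signal came from GST-tagged yeast transcription factors applied at about 100-200 nM to double-stranded universal all-10-mer Agilent arrays on fresh or once-stripped slides. Each ungapped eight-base word, pooled with its reverse complement, received an E-score from the Universal PBM Analysis Suite.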
row,Sequence,PBM E-score
1,CACTAATC,0.247
2,GCTACGAC,-0.125
3,AATGAATC,0.0194
4,TAGAGCCA,-0.133
5,CATGAGTC,0.0809
6,AGTGCGGG,0.0515
7,CATGCTCC,-0.188
8,AGAACAGA,0.0819
9,CTTTTGAC,-0.0394
10,CGACCAAG,-0.139
11,TGGAAAAA,0.0939
12,AGTACTAG,0.0248
13,TATCCGCA,0.254
14,GAGAATCA,0.0127
15,CATGGGGA,-0.0804
16,ATTCCAGA,-0.0448
17,GATGTCAA,0.0458
18,CGTTTGTA,0.108
19,GCCGTTTA,0.0611
20,CCTACGGA,-0.278
21,GAAGTGGC,-0.0739
22,CCGACATC,0.0711

row,Sequence,PBM E-score
1,ATGTTCAC,-0.0152
2,AGGCGCTG,-0.0381
3,CTCTTCAG,-0.13
4,ACAAGGAC,-0.111
5,CGTTATTA,0.133
6,CTCGTCTC,0.0845
7,AGACCTCC,-0.394
8,ACGTACGC,0.0141
9,CAAGCATC,-0.048
10,GTAAGTTA,0.0587
11,ATCTGGTA,0.141
12,TATATATA,0.369
13,ATGCATGG,0.16
14,AGGGAATA,0.211
15,CAGGTGCA,-0.111
16,GTGAGCAC,-0.0804
17,CAACATAA,0.286
18,CAAATCGG,-0.00957
19,AATGGGAC,0.00472
20,CACGATCG,0.0963
21,CGGGACCC,-0.332
22,ATTATGAC,0.197

row,Sequence,PBM E-score
1,CTTGAGGA,-0.184
2,CTTTGTTA,0.103
3,CACGCTCG,-0.0809
4,AGCGCCCC,-0.26
5,ACCCGTCA,-0.149
6,AGTGCAAA,0.188
7,AAATACAC,0.125
8,CAACTGCA,0.0357
9,CGATATAG,0.00737
10,CAGCTAGG,-0.216
11,CACGTCTG,-0.0659
12,ACGTCACA,0.063
13,CGGTGAAC,0.0137
14,GGGCGACC,-0.0987
15,GCGGAACA,0.121
16,ACATATGA,0.072
17,GTCGTCCA,0.0267
18,CGGACTCC,-0.126
19,AGGGTTAG,-0.0867
20,AAGACCGG,-0.194
21,CCTCAGGC,-0.109
22,ACCCTTAC,0.0619

row,Sequence,PBM E-score
1,CGATAAAA,0.0912
2,AACCTTGC,-0.00136
3,CTTTCAAC,0.0155
4,AAGCCAGC,-0.0231
5,CTTCTATC,-0.144
6,CCGGCCTA,-0.0459
7,CGTGGCTC,-0.295
8,ATGTGAGA,0.195
9,CAACCCTA,-0.0917
10,ATAGTCGC,0.0285
11,ATCATTAC,0.204
12,ATTACTCG,0.208
13,ATACTGTG,0.0593
14,CCTCGCCC,0.0221
15,CCGCATTC,0.00609
16,ACCACTCA,-0.0537
17,CGCGGCCA,-0.216
18,CATCCTCC,-0.217
19,GTAGCTTA,0.279
20,AATGGCTG,0.0434
21,AGAACTTG,0.0123
22,ACAAGAAC,0.178

# Individual results from the entries so far.
# For PBM E-score, AAGACCGG is entered as -0.194
# For PBM E-score, CCGGCCTA is entered as -0.0459
# For PBM E-score, CAACATAA is entered as 0.286
# For PBM E-score, GTAAGTTA is entered as 0.0587
# For PBM E-score, TATCCGCA is entered as 0.254

# Next records.

row,Sequence,PBM E-score
1,CCGCCATC,-0.0364
2,TATCTACA,0.18
3,GAGGTAAC,-0.0118
4,ACGGGGCT,-0.13
5,CTAATCAG,0.14
6,GTTGATTA,0.268
7,CAGCACAA,-0.0395
8,ACAGCGGA,0.052
9,AAGCGGGA,0.046
10,CCAACTGC,-0.043
11,CACCGAGA,0.00565
12,AACCGCAC,0.0806
13,CTCTACAA,-0.0634
14,GGGTCAGA,-0.276
15,AGATACAA,0.177
16,CACAATGG,0.104
17,CATCATTA,0.242
18,AGCGGCGG,-0.0102
19,AGCATATA,0.0988
20,GAGCATGC,-0.0912
21,CGCCCCAG,-0.125

# Exported with bars between the fields: part of the list above.
row | Sequence | PBM E-score
3 | GAGGTAAC | -0.0118
8 | ACAGCGGA | 0.052
